Measured data: PubChem BioAssay AID686938 (Drosophila RNAi Screening Center, 2013)

Aim: 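Looking for CRAC channel components and the factors controlling them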 (primary screen)
Cell system: Drosophila S2R+ cells
Knock-down reagent: long dsRNA against Drosophila genes, about 0.25 µg dsRNA per well, roughly 10,000 cells
Timing: 5 days of knock-down before the calcium assay
Challenge: thapsigargin (SERCA pump blocker) to empty calcium stores; entry signal taken 4 min after adding it
Detection: 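Duplicate raw fluo-4 intensities per well from a plate reader, at rest and four minutes after thapsigargin emptied calcium stores; entry-to-rest ratio filled for only some wells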
Direction: calcium entry signal: higher = stronger calcium signal after store depletion; entry to resting ratio: higher = more calcium entry relative to resting level; resting calcium signal: higher = higher resting calcium signal
Call rule: 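Hit if the duplicate-averaged plate z-score for entry over resting signal is under −3; wells with weak total dye signal (Fmax z < −2) or more than 5 off-targets removed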
Meaning of the calls: active = strongly reduced calcium entry; inactive = no strong reduction
In all, the deposit lists about 23,000 reagents; this is a random part of those that have a named target and a result. In the full data, 75 (0.33%) are marked active. 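Raw plate signals without normalisation; calls rest on plate z-scores that were not deposited; ratio present for only 364 wells.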 A number with no mark means an inactive call. Names joined by + are all predicted targets of the reagent. Not given: the dose of the treatment.

gene | amplicon | calcium entry signal, replicate 1 (fluorescence units) | calcium entry signal, replicate 2 (fluorescence units) | entry to resting ratio | resting calcium signal, replicate 1 (fluorescence units) | resting calcium signal, replicate 2 (fluorescence units)
ttv | DRSC07709 | 3.32e7 | 4.64e7 | – | 1.44e7 | 2.00e7
CheA46a | DRSC05184 | 3.40e7 | 4.76e7 | – | 1.69e7 | 2.23e7
CG12974 | DRSC11684 | 1.90e7 | 3.24e7 | – | 1.01e7 | 1.53e7
Afti | DRSC16440 | 3.05e7 | 2.95e7 | – | 1.41e7 | 1.36e7
CG15021 | DRSC08475 | 1.80e7 | 2.28e7 | – | 9.54e6 | 1.22e7
glob2 | DRSC12560 | 4.02e7 | 3.08e7 | – | 1.56e7 | 1.31e7
CG11898 | DRSC14432 | 2.56e7 | 2.45e7 | – | 1.39e7 | 1.33e7
CG7149 | DRSC03016 | 4.37e7 | – | – | 2.27e7 | –
CG16926 | DRSC06637 | 2.88e7 | 3.00e7 | – | 1.35e7 | 1.48e7
CG17508 | DRSC07771 | 2.96e7 | 3.85e7 | – | 1.49e7 | 1.69e7
Ranbp16 + Lcch3 | DRSC20257 | 3.44e7 | 3.91e7 | – | 1.67e7 | 1.81e7
Pp1-87B | DRSC16794 | 2.29e7 | 3.13e7 | – | 1.41e7 | 1.75e7
Pp1-87B | DRSC23299 | 3.57e7 | 3.72e7 | – | 1.78e7 | 1.62e7
CG43901 | DRSC19397 | 3.54e7 | 5.30e7 | – | 1.88e7 | 2.70e7
CG43901 | DRSC19652 | 2.66e7 | 4.43e7 | – | 1.82e7 | 2.57e7
CG43901 | DRSC19653 | 4.53e7 | 4.44e7 | – | 2.15e7 | 2.51e7
CG43901 | DRSC22791 | 3.99e7 | 3.40e7 | – | 1.96e7 | 1.68e7
pps | DRSC16057 | 3.61e7 | 4.70e7 | – | 1.97e7 | 2.35e7
Ufsp1 | DRSC04958 | 1.84e7 | 2.37e7 | – | 9.83e6 | 1.10e7
Vha13 | DRSC16895 | 3.66e7 | 4.72e7 | – | 2.69e7 | 3.71e7
CG13280 | DRSC02253 | 3.95e7 | 1.99e7 | – | 1.79e7 | 1.07e7
eIF3g2 | DRSC14275 | 4.24e7 | 4.37e7 | – | 4.53e7 | 1.95e7
CG12814 | DRSC14552 | 3.73e7 | 5.14e7 | – | 1.54e7 | 2.14e7
CG12814 | DRSC14553 | 3.36e7 | 3.21e7 | – | 1.63e7 | 1.66e7

An excerpt from above, limited to “calcium entry signal, replicate 1 (fluorescence units)”.
Pp1-87B [DRSC16794]	2.29e7
Pp1-87B [DRSC23299]	3.57e7
CG43901 [DRSC19397]	3.54e7

The results go on.
gene | amplicon | calcium entry signal, replicate 1 (fluorescence units) | calcium entry signal, replicate 2 (fluorescence units) | entry to resting ratio | resting calcium signal, replicate 1 (fluorescence units) | resting calcium signal, replicate 2 (fluorescence units)
CG45263 | DRSC12682 | 2.65e7 | 4.46e7 | – | 1.34e7 | 2.43e7
CG45263 | DRSC14357 | 5.07e7 | 3.41e7 | – | 2.62e7 | 1.85e7
CG45263 | DRSC14360 | 4.12e7 | 2.62e7 | – | 1.99e7 | 1.44e7
CG45263 | DRSC14361 | 3.23e7 | 2.67e7 | – | 1.54e7 | 1.43e7
CG45263 | DRSC14363 | 3.62e7 | 2.98e7 | – | 1.58e7 | 1.38e7
heca | DRSC16964 | 3.24e7 | 3.79e7 | – | 1.87e7 | 2.21e7
heca | DRSC22990 | 3.94e7 | 2.89e7 | – | 2.07e7 | 1.37e7
GAPsec | DRSC10564 | 4.73e7 | 3.00e7 | – | 2.85e7 | 1.33e7
CG14515 | DRSC14867 | 2.99e7 | 3.43e7 | – | 1.49e7 | 1.53e7
sut4 | DRSC07703 | 3.68e7 | 3.12e7 | – | 1.66e7 | 1.53e7
Plap | DRSC00678 | 3.87e7 | – | – | 2.43e7 | –
fiz | DRSC20188 | 3.31e7 | 4.21e7 | – | 1.57e7 | 1.83e7
Pal1 | DRSC06106 | 3.56e7 | 3.40e7 | – | 1.47e7 | 1.57e7
cup | DRSC03516 | 3.72e7 | – | – | 2.31e7 | –
Actbeta | DRSC17185 | 3.72e7 | 3.81e7 | – | 1.93e7 | 1.77e7
Actbeta | DRSC17217 | 4.10e7 | 6.35e7 | 1.9 | 2.17e7 | 2.59e7
